The values that follow come from PubChem BioAssay AID192 (DTP/NCI, 2004).

The list shows only some results of the screen, not a fair sample: it is rich in T/C values a quarter to a half above the control, in often repeated tests (any T/C) and in doses without a T/C. Other doses and runs of a compound stand elsewhere. T/C is the treated group as % of the vehicle group. Some doses have a count of surviving animals in place of a T/C: the source files T/C as zero there, which appears to mark a toxic dose or a test without result, not a measured value. Some doses without a T/C left all or most animals alive at the check, yet need not have been tolerated: the source hardly ever lists a survival T/C far under the control, and the zero likely stands for such cases as well. Survivors were counted at the toxicity check, usually on the fifth day, unless a day is given; later deaths do not show. Schedules are NCI's codes, read here as Q, the interval in days (D) or hours (H), X, the number of doses. Some doses were run more than once; their values stand side by side, smallest first. Brackets with × give the number of equal values in this list. Where survival is the endpoint, the PubChem record calls one and a half times the control and up active, and a quarter to a half above the control has no call in these data; cut-offs in other NCI protocols can differ. Some T/C values are followed by the survivors on the day toxicity was checked, most often the fifth; without a count, all were alive then.

In the assay the test system is BDF1 mice, B16 melanoma ip, median survival T/C. The assay is described as follows: NCI In Vivo Anticancer Drug Screen. Data for tumor model B16 Melanoma (intraperitoneal) in B6D2F1 (BDF1) mice. The following applies: T/C endpoint: median survival time, higher T/C = longer survival. The gist of the method: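 Values are ratios of treated (T) to vehicle-control (C) measurements of survival or tumor size in tumor-bearing mice.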

[1] abbreviates: dose: 50.0 mg/kg/injection, schedule: Q01DX009 (ip), vehicle: saline.
The mark [2] stands for this setting: dose: 100.0 mg/kg/injection, schedule: Q01DX009 (ip), vehicle: saline with Tween-80.
Where [3] appears, read: dose: 100.0 mg/kg/injection, schedule: Q01DX009 (ip), vehicle: saline.
Setting [4] is: dose: 200.0 mg/kg/injection, schedule: Q01DX009 (ip), vehicle: saline.
[5] abbreviates: dose: 400.0 mg/kg/injection, schedule: Q01DX009 (ip), vehicle: Klucel (hydroxypropylcellulose) (HPC).
Where [6] appears, read: dose: 12.5 mg/kg/injection, schedule: Q01DX009 (ip), vehicle: saline.
Where [7] appears, read: dose: 10.0 mg/kg/injection, schedule: Q01DX009 (ip), vehicle: saline with Tween-80.

Take `O=c1[nH]c(=O)n(C2CC(O)C(CO)O2)cc1F` (stereo not drawn): the T/C (dose: 10.0 mg/kg/injection, schedule: Q01DX009 (ip), vehicle: saline) is reported as 97, 113, 119, 135, 138 % of control; the T/C (dose: 20.0 mg/kg/injection, schedule: Q01DX009 (ip), vehicle: saline) is reported as 104, 131, 135, 145, 147 % of control; the T/C (dose: 25.0 mg/kg/injection, schedule: Q01DX009 (ip), vehicle: saline with Tween-80) is 130 % of control; the T/C (dose: 25.0 mg/kg/injection, schedule: Q01DX009 (ip), vehicle: saline, evaluated on day 45) was 107, 119, 123, 128, 138 % of control; the T/C (dose: 25.0 mg/kg/injection, schedule: Q01DX009 (ip), vehicle: saline, evaluated on day 60) was 100, 110 (2×), 111, 113, 114, 115 (2×), 121, 122 (2×), 123, 125, 127, 128, 129, 130, 133 [5 of 6 alive], 136, 137, 140, 141, 153, 156 [5 of 6 alive], 171 % of control; the T/C (dose: 40.0 mg/kg/injection, schedule: Q01DX009 (ip), vehicle: saline) is given as 118, 143, 145, 150 % of control. In addition, the T/C reads like this: (dose: 50.0 mg/kg/injection, schedule: Q01DX009 (ip), vehicle: saline, evaluated on day 45) 112, 116, 126, 133, 148 % of control; (dose: 50.0 mg/kg/injection, schedule: Q01DX009 (ip), vehicle: saline, evaluated on day 60) 92, 97, 104, 107, 115 [5 of 6 alive], 121, 123 (3×), 129, 132, 133 [4 of 6 alive], 135, 136 (3×), 140, 141, 145, 146 (2×), 147, 165, 166 % of control [4 of 6 alive]; (dose: 60.0 mg/kg/injection, schedule: Q01DX009 (ip), vehicle: saline) 127 and 141 % of control; (dose: 80.0 mg/kg/injection, schedule: Q01DX009 (ip), vehicle: saline) 88, 139, 142, 145 % of control; under setting [2], 145 % of control; (dose: 100.0 mg/kg/injection, schedule: Q01DX009 (ip), vehicle: saline, evaluated on day 45) 114, 125, 128, 148, 150 % of control. Also, the T/C reads like this: (dose: 100.0 mg/kg/injection, schedule: Q01DX009 (ip), vehicle: saline, evaluated on day 60) 93, 97 (3×), 119, 126 [5 of 6 alive], 129, 131 (2×), 134, 141 (2×), 145, 150, 153, 158, 162, 178 % of control; (dose: 200.0 mg/kg/injection, schedule: Q01DX009 (ip), vehicle: saline, evaluated on day 45) 100 and 112 % of control; (dose: 200.0 mg/kg/injection, schedule: Q01DX009 (ip), vehicle: saline, evaluated on day 60) 88 [5 of 6 alive], 89, 105 (2×), 111, 115, 125 % of control. Besides, the survivor count runs as follows: under setting [1], 10 of 10; under setting [3], 10 of 10 and 6 of 6; (dose: 200.0 mg/kg/injection, schedule: Q01DX009 (ip), vehicle: saline with Tween-80) 6 of 6; under setting [4], 5 of 6, 10 of 10, 6 of 6 (2×).

As for `CCCCC(CC)C(O)C(C)C(C)O` (stereo not drawn), the survivor count under setting [5] is 5 of 6.

Consider `C/C=C/c1cc2n(c1)C(=O)c1cc(OC3OC(C)C(NC)C(C)(O)C3O)c(C)c(O)c1NC2O` (stereo not drawn), for which the survivor count reads like this: (dose: 0.04 mg/kg/injection, schedule: Q04DX003 (ip), vehicle: DMSO) 8 of 10; (dose: 0.08 mg/kg/injection, schedule: Q04DX003 (ip), vehicle: DMSO) 4 of 10; (dose: 0.16 mg/kg/injection, schedule: Q04DX003 (ip), vehicle: DMSO) 1 of 10; (dose: 0.32 mg/kg/injection, schedule: Q04DX003 (ip), vehicle: DMSO) 0 of 10; (dose: 8.0 micrograms/kg/injection, schedule: Q04DX003 (ip), vehicle: saline) 6 of 10; (dose: 32.0 micrograms/kg/injection, schedule: Q04DX003 (ip), vehicle: saline) 1 of 10. Further, the T/C is 136 % of control (dose: 0.3 micrograms/kg/injection, schedule: Q04DX003 (ip), vehicle: saline) and 136 % of control (dose: 4.0 micrograms/kg/injection, schedule: Q04DX003 (ip), vehicle: saline).

With `CC(C)CNc1ccc(S(=O)(=O)c2ccc(NCC(C)C)c([N+](=O)[O-])c2)cc1[N+](=O)[O-]`, the survivor count runs as follows: under setting [6], 10 of 10; under setting [1], 10 of 10.

Turning to `CCCCCCCC(=O)O[C@H]1[C@H]2[C@@H](CC1(C)C)C(=O)[C@]13O[C@H]1C(=O)[C@]1(CO1)[C@]23C`, the survivor count reads like this: (dose: 2.5 mg/kg/injection, schedule: Q01DX009 (ip), vehicle: Klucel (hydroxypropylcellulose) (HPC)) 10 of 10; (dose: 2.5 mg/kg/injection, schedule: Q01DX009 (ip), vehicle: saline with Tween-80) 10 of 10; (dose: 5.0 mg/kg/injection, schedule: Q01DX009 (ip), vehicle: Klucel (hydroxypropylcellulose) (HPC)) 10 of 10; (dose: 5.0 mg/kg/injection, schedule: Q01DX009 (ip), vehicle: saline with Tween-80) 6 of 6; under setting [7], 5 of 6; (dose: 20.0 mg/kg/injection, schedule: Q01DX009 (ip), vehicle: Klucel (hydroxypropylcellulose) (HPC)) 10 of 10.

In the case of `C#CCN(C)Cc1ccccc1`, the survivor count under setting [3] is 10 of 10 and the survivor count under setting [4] is 9 of 10.

Regarding `CC(C)C1OC(=O)/C=C/C=C/C=C/C=C/C=C/CC(O)C(C)C(O)CC(O)CC(O)CC(O)CC(O)CC(O)CC(O)/C=C/C1C` (stereo not drawn), the survivor count is, setting by setting: under setting [6], 9 of 10; (dose: 25.0 mg/kg/injection, schedule: Q01DX009 (ip), vehicle: saline) 0 of 10.

For the compound `CCOC(=O)CCC[P+](c1ccccc1)(c1ccccc1)c1ccccc1`, the T/C was 127 % of control under setting [7]; 129 % of control (dose: 30.0 mg/kg/injection, schedule: Q01DX009 (ip), vehicle: saline with Tween-80); 133 % of control (dose: 44.0 mg/kg/injection, schedule: Q01DX009 (ip), vehicle: saline with Tween-80).

In the case of `NP(Cl)(c1ccccc1)(c1ccccc1)c1ccccc1`, the survivor count is reported as 9 of 10 (dose: 0.2 mg/kg/injection, schedule: Q01DX009 (ip), vehicle: Klucel (hydroxypropylcellulose) (HPC)) and 9 of 10 (dose: 0.78 mg/kg/injection, schedule: Q01DX009 (ip), vehicle: Klucel (hydroxypropylcellulose) (HPC)).

Regarding `NC1=NC(=O)C(c2ccccc2)O1` (stereo not drawn), the survivor count (dose: 50.0 mg/kg/injection, schedule: Q01DX009 (ip), vehicle: Klucel (hydroxypropylcellulose) (HPC)) is reported as 9 of 10 and the survivor count (dose: 200.0 mg/kg/injection, schedule: Q01DX009 (ip), vehicle: Klucel (hydroxypropylcellulose) (HPC)) was 9 of 10.

As to `OC1(c2ccccc2)c2ccc(Br)cc2-c2cc(Br)ccc21`, for the setting “dose: 400.0 mg/kg/injection, schedule: Q01DX009 (ip), vehicle: saline with Tween-80”, the survivor count was 10 of 10.

In the case of `CCCCOc1ccc(NC(N)=Nc2ccc(Cl)cc2)cc1`, the survivor count (dose: 50.0 mg/kg/injection, schedule: Q01DX009 (ip), vehicle: saline with Tween-80) is 4 of 6.

Regarding `c1ccc2c(CNC3CCCCC3)c[nH]c2c1`, the survivor count (dose: 100.0 mg/kg/injection, schedule: Q01DX009 (ip), vehicle: Klucel (hydroxypropylcellulose) (HPC)) is 7 of 10; the survivor count (dose: 200.0 mg/kg/injection, schedule: Q04DX003 (ip), vehicle: Klucel (hydroxypropylcellulose) (HPC)) is given as 2 of 10; the survivor count (dose: 400.0 mg/kg/injection, schedule: Q04DX003 (ip), vehicle: Klucel (hydroxypropylcellulose) (HPC)) is 0 of 10.

For the compound `C=C1[C@@H](O)[C@]2(O)OC[C@@]34[C@H]1[C@@H](OC(=O)C(C)CC)C(=O)O[C@@H]3C[C@H]1C(C)=CC(=O)[C@@H](O)[C@]1(C)[C@@H]24` (stereo partly drawn), the T/C is, setting by setting: (dose: 0.25 mg/kg/injection, schedule: Q01DX009 (ip), vehicle: saline with Tween-80) 127 % of control; (dose: 2.0 mg/kg/injection, schedule: Q01DX009 (ip), vehicle: saline with Tween-80) 125 % of control.

For `O=C(Nc1ccccc1)Nc1nccs1`, the survivor count under setting [5] is recorded as 6 of 10.

`CNC(C)CC1CCCCC1` (stereo not drawn): the survivor count under setting [1] was 9 of 10.

As to `CCCCCCCCCCCCNCCC#N`, the survivor count under setting [2] is given as 9 of 10.

Consider `CC[n+]1ccc(Nc2ccc(NC(=O)c3ccc(Nc4cc[n+](CC)c5ccc(N)cc45)cc3)cc2)cc1`, for which the survivor count (dose: 8.0 mg/kg/injection, schedule: Q01DX009 (ip), vehicle: water) is listed as 10 of 10.
